Reference: the supplement of paper PMC7666118
The other results are listed elsewhere or left out.

By UniProt entry, the sequences of proteins in these tests, tags left out. Where a name states a change or a piece, a line headed by the entry shows the natural chain unless it says otherwise.
UniProt Q9H4A6: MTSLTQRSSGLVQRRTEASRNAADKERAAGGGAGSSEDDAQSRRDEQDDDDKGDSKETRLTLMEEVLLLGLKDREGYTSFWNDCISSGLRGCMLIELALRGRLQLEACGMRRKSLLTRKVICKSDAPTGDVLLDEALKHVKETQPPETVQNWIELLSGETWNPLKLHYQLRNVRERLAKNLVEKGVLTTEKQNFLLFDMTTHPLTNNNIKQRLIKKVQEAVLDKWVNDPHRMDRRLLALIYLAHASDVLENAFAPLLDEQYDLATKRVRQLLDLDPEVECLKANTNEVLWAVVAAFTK
UniProt P51659: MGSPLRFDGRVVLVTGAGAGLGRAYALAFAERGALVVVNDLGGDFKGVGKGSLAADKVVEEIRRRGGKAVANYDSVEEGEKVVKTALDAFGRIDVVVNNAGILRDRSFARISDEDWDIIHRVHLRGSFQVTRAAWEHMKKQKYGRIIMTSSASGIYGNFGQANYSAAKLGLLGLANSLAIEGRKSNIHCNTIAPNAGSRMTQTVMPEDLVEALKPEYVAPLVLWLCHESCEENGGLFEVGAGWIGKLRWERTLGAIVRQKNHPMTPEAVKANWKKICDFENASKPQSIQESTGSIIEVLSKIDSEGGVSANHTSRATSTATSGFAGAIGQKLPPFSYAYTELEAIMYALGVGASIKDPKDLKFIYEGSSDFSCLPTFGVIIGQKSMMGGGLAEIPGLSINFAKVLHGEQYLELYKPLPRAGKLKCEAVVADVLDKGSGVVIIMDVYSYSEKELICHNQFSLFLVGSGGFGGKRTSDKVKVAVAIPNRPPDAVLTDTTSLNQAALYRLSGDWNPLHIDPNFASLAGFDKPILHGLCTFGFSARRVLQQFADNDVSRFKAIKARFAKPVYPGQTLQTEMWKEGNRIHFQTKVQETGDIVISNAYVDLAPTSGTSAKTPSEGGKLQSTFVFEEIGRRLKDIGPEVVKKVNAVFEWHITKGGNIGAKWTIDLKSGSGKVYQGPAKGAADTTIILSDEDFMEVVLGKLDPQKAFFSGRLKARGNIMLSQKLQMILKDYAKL
UniProt P56937: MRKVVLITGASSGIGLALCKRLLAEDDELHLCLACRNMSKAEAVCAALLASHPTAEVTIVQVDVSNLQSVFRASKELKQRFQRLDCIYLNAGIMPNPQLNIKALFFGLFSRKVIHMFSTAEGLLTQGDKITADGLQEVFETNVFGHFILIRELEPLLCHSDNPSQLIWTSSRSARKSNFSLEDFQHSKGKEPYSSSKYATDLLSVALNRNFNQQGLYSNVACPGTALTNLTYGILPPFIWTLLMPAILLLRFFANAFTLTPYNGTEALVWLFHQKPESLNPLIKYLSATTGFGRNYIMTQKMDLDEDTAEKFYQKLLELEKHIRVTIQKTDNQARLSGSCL
UniProt P46926: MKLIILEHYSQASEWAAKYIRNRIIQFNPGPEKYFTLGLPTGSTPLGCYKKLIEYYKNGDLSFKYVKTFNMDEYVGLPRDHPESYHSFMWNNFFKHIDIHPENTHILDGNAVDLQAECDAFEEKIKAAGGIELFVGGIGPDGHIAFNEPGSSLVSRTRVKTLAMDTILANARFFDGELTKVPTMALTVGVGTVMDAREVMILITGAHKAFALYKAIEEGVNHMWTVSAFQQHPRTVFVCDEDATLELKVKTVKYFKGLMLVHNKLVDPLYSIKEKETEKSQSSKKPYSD
UniProt P62993, whole entry, looked up: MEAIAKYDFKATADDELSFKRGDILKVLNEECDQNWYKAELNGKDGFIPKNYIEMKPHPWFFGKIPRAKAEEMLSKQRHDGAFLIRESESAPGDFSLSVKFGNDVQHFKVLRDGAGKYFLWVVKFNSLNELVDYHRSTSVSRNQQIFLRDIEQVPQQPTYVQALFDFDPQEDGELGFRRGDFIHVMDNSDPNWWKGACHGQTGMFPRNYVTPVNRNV
UniProt Q9Y5Z4: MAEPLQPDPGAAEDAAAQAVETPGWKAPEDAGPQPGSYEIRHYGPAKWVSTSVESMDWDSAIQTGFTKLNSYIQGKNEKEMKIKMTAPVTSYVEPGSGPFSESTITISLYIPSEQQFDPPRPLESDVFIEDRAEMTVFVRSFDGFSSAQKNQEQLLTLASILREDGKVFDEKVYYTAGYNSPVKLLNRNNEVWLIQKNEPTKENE
UniProt P55084: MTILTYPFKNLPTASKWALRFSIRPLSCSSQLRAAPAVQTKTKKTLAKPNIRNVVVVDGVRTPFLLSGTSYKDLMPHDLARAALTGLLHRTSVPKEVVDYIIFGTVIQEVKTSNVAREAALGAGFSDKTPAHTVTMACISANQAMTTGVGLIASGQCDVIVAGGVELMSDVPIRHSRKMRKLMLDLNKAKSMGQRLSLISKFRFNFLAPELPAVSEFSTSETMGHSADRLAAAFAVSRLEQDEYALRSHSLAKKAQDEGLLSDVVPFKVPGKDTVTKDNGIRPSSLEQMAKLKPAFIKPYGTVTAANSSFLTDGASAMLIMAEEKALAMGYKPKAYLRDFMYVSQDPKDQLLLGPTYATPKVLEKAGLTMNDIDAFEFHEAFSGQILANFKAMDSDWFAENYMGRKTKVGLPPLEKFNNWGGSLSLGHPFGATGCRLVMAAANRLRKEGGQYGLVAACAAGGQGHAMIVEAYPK
UniProt Q86VS8: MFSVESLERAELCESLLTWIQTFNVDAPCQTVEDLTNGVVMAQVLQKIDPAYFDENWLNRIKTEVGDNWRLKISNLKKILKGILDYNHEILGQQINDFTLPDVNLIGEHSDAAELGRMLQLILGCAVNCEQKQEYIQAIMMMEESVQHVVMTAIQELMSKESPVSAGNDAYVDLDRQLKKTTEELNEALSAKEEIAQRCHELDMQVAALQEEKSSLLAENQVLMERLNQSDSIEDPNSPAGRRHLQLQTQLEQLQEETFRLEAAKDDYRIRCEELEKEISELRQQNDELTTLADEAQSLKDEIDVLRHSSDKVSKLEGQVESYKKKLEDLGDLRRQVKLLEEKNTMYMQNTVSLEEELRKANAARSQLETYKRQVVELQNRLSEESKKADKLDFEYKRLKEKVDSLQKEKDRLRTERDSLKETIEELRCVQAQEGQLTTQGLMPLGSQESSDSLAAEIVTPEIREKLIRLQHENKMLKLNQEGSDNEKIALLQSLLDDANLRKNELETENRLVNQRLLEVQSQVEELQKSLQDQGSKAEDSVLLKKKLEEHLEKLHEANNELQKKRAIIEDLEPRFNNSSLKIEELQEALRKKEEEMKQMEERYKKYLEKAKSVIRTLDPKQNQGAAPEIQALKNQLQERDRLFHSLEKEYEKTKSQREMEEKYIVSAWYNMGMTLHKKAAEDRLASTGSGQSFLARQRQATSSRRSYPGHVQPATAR
UniProt Q3SXM5: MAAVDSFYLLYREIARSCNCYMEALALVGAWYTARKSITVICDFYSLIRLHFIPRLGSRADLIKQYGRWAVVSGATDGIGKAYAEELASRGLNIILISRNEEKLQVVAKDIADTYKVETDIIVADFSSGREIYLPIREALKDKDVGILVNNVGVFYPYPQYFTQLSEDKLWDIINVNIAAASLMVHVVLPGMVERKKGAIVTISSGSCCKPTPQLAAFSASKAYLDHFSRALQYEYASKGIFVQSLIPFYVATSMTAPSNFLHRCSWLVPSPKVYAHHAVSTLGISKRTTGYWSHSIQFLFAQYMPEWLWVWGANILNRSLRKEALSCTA
UniProt Q9HAV7: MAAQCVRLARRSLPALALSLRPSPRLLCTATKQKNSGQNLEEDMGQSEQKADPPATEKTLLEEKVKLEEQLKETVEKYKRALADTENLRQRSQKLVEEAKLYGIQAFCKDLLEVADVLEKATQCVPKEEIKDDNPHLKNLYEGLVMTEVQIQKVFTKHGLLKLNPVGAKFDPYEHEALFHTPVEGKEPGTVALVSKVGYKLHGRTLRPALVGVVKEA
UniProt P35914: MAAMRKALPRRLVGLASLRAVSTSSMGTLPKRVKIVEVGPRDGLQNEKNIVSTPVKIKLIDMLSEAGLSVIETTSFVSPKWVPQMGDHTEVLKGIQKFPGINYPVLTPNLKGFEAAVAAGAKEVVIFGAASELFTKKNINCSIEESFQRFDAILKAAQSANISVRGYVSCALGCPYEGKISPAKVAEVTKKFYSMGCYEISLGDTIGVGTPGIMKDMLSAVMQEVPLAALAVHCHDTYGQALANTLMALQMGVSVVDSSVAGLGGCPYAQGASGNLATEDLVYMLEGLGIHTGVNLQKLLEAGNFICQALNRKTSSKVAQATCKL
UniProt Q08378: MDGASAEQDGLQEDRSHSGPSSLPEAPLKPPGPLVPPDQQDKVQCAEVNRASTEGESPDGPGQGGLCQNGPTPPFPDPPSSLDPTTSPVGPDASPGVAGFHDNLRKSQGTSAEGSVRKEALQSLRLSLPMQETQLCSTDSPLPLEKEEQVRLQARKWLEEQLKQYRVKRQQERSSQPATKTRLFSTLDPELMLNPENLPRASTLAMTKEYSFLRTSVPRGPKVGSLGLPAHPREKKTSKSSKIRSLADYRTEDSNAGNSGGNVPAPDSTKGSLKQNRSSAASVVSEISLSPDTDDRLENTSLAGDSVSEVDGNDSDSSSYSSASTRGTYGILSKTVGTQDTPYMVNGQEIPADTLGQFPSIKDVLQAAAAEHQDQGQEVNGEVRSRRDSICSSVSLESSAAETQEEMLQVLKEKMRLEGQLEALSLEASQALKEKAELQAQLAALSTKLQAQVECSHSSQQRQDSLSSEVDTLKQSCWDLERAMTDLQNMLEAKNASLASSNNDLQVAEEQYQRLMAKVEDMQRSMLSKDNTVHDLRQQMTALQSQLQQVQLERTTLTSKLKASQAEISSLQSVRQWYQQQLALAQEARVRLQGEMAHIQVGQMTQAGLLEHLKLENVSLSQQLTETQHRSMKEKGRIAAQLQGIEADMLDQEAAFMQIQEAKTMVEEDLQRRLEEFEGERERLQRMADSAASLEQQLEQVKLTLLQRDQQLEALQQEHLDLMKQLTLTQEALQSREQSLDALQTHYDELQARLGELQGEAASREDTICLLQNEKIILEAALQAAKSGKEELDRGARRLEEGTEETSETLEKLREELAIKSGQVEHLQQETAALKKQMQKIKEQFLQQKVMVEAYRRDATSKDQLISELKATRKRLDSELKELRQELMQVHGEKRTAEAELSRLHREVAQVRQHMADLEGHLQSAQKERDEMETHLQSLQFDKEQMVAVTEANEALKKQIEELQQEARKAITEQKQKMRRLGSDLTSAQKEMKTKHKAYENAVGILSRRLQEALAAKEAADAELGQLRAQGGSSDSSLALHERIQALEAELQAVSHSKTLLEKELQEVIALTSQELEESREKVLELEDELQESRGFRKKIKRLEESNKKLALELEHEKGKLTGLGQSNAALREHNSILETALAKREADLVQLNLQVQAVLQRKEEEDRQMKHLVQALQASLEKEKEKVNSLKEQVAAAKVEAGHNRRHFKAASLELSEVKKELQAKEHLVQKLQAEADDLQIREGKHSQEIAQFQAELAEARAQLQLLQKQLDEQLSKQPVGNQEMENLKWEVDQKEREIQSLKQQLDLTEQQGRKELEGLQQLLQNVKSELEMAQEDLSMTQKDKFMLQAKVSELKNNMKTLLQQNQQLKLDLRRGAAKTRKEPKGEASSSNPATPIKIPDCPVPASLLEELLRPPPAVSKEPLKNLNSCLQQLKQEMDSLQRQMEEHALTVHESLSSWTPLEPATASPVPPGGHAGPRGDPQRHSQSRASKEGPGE
UniProt Q9NSC5: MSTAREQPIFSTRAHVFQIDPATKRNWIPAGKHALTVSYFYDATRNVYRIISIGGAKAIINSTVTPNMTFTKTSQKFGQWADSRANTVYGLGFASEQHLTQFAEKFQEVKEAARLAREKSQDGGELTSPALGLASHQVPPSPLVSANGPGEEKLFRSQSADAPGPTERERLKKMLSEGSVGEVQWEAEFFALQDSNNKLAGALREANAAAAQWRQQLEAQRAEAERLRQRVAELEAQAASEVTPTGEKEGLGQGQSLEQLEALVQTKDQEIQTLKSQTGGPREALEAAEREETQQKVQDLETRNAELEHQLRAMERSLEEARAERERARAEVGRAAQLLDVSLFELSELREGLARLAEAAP
UniProt P07686: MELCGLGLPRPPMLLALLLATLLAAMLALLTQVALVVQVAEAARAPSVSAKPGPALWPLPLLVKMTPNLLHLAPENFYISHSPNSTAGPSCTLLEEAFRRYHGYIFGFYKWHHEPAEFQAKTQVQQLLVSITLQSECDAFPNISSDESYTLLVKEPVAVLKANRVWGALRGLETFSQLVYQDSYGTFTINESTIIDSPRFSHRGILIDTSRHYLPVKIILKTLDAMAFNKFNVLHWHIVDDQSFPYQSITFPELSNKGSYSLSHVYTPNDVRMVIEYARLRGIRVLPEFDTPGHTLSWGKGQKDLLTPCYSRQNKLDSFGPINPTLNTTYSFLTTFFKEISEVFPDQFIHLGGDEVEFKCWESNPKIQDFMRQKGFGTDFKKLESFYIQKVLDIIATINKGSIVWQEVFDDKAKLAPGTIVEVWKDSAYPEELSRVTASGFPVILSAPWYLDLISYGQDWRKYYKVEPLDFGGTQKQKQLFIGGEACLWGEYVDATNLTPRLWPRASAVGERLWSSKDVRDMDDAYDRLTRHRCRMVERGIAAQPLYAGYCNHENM

compound: COc1ccc(Cn2ccc3cc(C)c(C(=O)NO)cc32)cc1; experiment: dose-dependent thermal stabilisation call (2D-TPP, DLPTP, 10% FDR) (binary (1 = stabilised)); higher = stabilised by the compound; settings: system: HL-60 intact cells; concentration range 0.04-10 µM
Experimental: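 2D thermal proteome profiling in intact HL-60 cells treated with BRD-3811 (0, 0.04, 0.29, 2, 10 uM) for 90 min at 37 C, then heated 3 min at one of 12 temperatures (42-63.9 C). Soluble protein was quantified by TMT10 MS. The value is the DLPTP call of the paper: dose-dependent thermal stabilisation over all temperatures at 10% FDR (F-test of a dose-response against a flat model); one experiment, one call per tested protein.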

Target	dose-dependent thermal stabilisation call
GOLPH3 (UniProt Q9H4A6)	inactive: 0
GPATCH4 (UniProt Q5T3I0)	inactive: 0
HCG_2004593	inactive: 0
GPBP1 (UniProt Q86WP2)	inactive: 0
HSD17B4 (UniProt P51659)	inactive: 0
HERC1 (UniProt Q15751)	inactive: 0
HSD17B7 (UniProt P56937)	inactive: 0
HEATR1 (UniProt Q9H583)	inactive: 0
GOSR2 (UniProt O14653)	inactive: 0
GNPDA1 (UniProt P46926)	inactive: 0
GPATCH2 (UniProt Q9NW75)	inactive: 0
GUK1 (UniProt Q16774)	inactive: 0
GRB2 (UniProt P62993)	inactive: 0
HEBP2 (UniProt Q9Y5Z4)	inactive: 0
GTF2H4 (UniProt Q92759)	inactive: 0
GNS (UniProt P15586)	inactive: 0
HMGN4 (UniProt O00479)	inactive: 0
HSPA9 (UniProt P38646)	inactive: 0
GPN1 (UniProt Q9HCN4)	inactive: 0
HNRNPM (UniProt P52272)	inactive: 0

In another format: results already given.
Target,dose-dependent thermal stabilisation call
GPBP1 (UniProt Q86WP2),inactive: 0
HSD17B4 (UniProt P51659),inactive: 0
HERC1 (UniProt Q15751),inactive: 0
HSD17B7 (UniProt P56937),inactive: 0
HEATR1 (UniProt Q9H583),inactive: 0
GOSR2 (UniProt O14653),inactive: 0
GNPDA1 (UniProt P46926),inactive: 0
GPATCH2 (UniProt Q9NW75),inactive: 0
GUK1 (UniProt Q16774),inactive: 0
GRB2 (UniProt P62993),inactive: 0
HEBP2 (UniProt Q9Y5Z4),inactive: 0

Remaining list, next part

Target	dose-dependent thermal stabilisation call
HADHB (UniProt P55084)	inactive: 0
HNRNPUL1 (UniProt Q9BUJ2)	inactive: 0
GPHN (UniProt Q9NQX3)	inactive: 0
HNRNPC (UniProt P07910)	inactive: 0
HOOK3 (UniProt Q86VS8)	inactive: 0
HSDL1 (UniProt Q3SXM5)	inactive: 0
HBXIP (UniProt O43504)	inactive: 0
GSTCD (UniProt Q8NEC7)	inactive: 0
HSF1 (UniProt Q00613)	inactive: 0
GZF1 (UniProt Q9H116)	inactive: 0
GRPEL1 (UniProt Q9HAV7)	inactive: 0
HMGCL (UniProt P35914)	inactive: 0
GOLGA3 (UniProt Q08378)	inactive: 0
H6PD (UniProt O95479)	inactive: 0
HPCAL1 (UniProt P37235)	inactive: 0
HOMER3 (UniProt Q9NSC5)	inactive: 0
GNL3L (UniProt Q9NVN8)	inactive: 0
HEXB (UniProt P07686)	inactive: 0
HCG_20857	inactive: 0
GTF3C1 (UniProt Q12789)	inactive: 0
